Assay results published in PMC7005872.
Results are given in words; binding and its absence hold for the method and conditions named. Binding seen in cells or lysates may run through a third protein. Where a sequence is shown, tags or fusion partners need not be part of it.

Biological target: GST-URM1 (ubiquitin-related modifier 1) (human)
Assay: pull-down; beads coated with GST-fusion proteins incubated 2 h at 4 °C with lysate of transfected HeLa cells (50 mM HEPES pH 7.4, 250 mM NaCl, 10 mM MgCl2, 1% Triton X-100); five washes; immunoblot with anti-GFP; only the target purified

binding: no binding
B1: GFP-TBC1D9 (TBC1 domain family member 9) (protein, UniProt Q6ZT07 1-1266)
chain: MWVNPEEVLLANALWITERANPYFILQRRKGHAGDGGGGGGLAGLLVGTLDVVLDSSARVAPYRILYQTPDSLVYWTIACGGSRKEITEHWEWLEQNLLQTLSIFENENDITTFVRGKIQGIIAEYNKINDVKEDDDTEKFKEAIVKFHRLFGMPEEEKLVNYYSCSYWKGKVPRQGWMYLSINHLCFYSFLMGREAKLVIRWVDITQLEKNATLLLPDVIKVSTRSSEHFFSVFLNINETFKLMEQLANIAMRQLLDNEGFEQDRSLPKLKRKSPKKVSALKRDLDARAKSERYRALFRLPKDEKLDGHTDCTLWTPFNKMHILGQMFVSTNYICFTSKEENLCSLIIPLREVTIVEKADSSSVLPSPLSISTRNRMTFLFANLKDRDFLVQRISDFLQQTTSKIYSDKEFAGSYNSSDDEVYSRPSSLVSSSPQRSTSSDADGERQFNLNGNSVPTATQTLMTMYRRRSPEEFNPKLAKEFLKEQAWKIHFAEYGQGICMYRTEKTRELVLKGIPESMRGELWLLLSGAINEKATHPGYYEDLVEKSMGKYNLATEEIERDLHRSLPEHPAFQNEMGIAALRRVLTAYAFRNPNIGYCQAMNIVTSVLLLYAKEEEAFWLLVALCERMLPDYYNTRVVGALVDQGVFEELARDYVPQLYDCMQDLGVISTISLSWFLTLFLSVMPFESAVVVVDCFFYEGIKVIFQLALAVLDANVDKLLNCKDDGEAMTVLGRYLDSVTNKDSTLPPIPHLHSLLSDDVEPYPEVDIFRLIRTSYEKFGTIRADLIEQMRFKQRLKVIQTLEDTTKRNVVRTIVTETSFTIDELEELYALFKAEHLTSCYWGGSSNALDRHDPSLPYLEQYRIDFEQFKGMFALLFPWACGTHSDVLASRLFQLLDENGDSLINFREFVSGLSAACHGDLTEKLKLLYKMHVLPEPSSDQDEPDSAFEATQYFFEDITPECTHVVGLDSRSKQGADDGFVTVSLKPDKGKRANSQENRNYLRLWTPENKSKSKNAKDLPKLNQGQFIELCKTMYNMFSEDPNEQELYHATAAVTSLLLEIGEVGKLFVAQPAKEGGSGGSGPSCHQGIPGVLFPKKGPGQPYVVESVEPLPASLAPDSEEHSLGGQMEDIKLEDSSPRDNGACSSMLISDDDTKDDSSMSSYSVLSAGSHEEDKLHCEDIGEDTVLVRSGQGTAALPRSTSLDRDWAITFEQFLASLLTEPALVKYFDKPVCMMARITSAKNIRMMGKPLTSASDYEISAMSG
